Laboratory results: patent US20180362587A1, “Compositions and Methods for Inhibiting CBP80 Binding to PGC1 Family of Co-Activators” (University of Rochester, priority 2015, published 2018)
These are yes or no findings as the source states them, for the method shown. For part of these data: In cells and extracts the contact can be indirect. Some binding calls cover weakened binding; strength is not graded here.

Protein sequences, listed by entry. Tags and fused reporters are not part of them. Lines headed by an entry give the natural chain unless they say otherwise; changes in a name come on top.
UniProt Q86YN6: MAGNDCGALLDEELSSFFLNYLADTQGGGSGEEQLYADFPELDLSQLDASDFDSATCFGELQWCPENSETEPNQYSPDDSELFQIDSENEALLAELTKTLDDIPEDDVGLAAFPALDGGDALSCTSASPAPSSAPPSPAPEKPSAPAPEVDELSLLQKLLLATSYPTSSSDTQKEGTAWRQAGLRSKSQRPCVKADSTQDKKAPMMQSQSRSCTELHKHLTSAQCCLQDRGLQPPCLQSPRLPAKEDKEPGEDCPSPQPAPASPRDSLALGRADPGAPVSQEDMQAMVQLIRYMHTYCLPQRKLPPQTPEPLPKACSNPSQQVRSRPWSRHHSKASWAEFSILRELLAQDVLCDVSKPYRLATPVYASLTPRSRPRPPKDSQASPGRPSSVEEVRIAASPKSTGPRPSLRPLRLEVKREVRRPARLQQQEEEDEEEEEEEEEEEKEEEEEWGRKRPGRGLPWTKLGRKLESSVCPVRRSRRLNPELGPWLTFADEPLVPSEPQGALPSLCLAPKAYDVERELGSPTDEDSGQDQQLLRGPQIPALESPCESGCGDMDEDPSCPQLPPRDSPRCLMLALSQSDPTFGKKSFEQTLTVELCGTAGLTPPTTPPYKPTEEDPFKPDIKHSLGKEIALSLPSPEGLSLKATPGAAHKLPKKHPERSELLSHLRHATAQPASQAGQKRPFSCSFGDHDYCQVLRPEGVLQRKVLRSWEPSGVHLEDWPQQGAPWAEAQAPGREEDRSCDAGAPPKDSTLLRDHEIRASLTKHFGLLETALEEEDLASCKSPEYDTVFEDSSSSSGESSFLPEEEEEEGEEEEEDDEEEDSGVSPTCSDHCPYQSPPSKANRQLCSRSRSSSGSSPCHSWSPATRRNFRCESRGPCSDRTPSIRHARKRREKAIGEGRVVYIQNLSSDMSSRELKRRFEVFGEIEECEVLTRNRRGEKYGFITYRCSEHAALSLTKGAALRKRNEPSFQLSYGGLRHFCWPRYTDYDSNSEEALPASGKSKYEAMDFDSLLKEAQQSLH

Legend:
[1] = target: T1, endogenous CBP80 of mouse C2C12 myoblasts (mouse) (UniProt Q3UYV9); assay: co-immunoprecipitation from C2C12 myoblast lysates, western blot
T1 sequence (looked up): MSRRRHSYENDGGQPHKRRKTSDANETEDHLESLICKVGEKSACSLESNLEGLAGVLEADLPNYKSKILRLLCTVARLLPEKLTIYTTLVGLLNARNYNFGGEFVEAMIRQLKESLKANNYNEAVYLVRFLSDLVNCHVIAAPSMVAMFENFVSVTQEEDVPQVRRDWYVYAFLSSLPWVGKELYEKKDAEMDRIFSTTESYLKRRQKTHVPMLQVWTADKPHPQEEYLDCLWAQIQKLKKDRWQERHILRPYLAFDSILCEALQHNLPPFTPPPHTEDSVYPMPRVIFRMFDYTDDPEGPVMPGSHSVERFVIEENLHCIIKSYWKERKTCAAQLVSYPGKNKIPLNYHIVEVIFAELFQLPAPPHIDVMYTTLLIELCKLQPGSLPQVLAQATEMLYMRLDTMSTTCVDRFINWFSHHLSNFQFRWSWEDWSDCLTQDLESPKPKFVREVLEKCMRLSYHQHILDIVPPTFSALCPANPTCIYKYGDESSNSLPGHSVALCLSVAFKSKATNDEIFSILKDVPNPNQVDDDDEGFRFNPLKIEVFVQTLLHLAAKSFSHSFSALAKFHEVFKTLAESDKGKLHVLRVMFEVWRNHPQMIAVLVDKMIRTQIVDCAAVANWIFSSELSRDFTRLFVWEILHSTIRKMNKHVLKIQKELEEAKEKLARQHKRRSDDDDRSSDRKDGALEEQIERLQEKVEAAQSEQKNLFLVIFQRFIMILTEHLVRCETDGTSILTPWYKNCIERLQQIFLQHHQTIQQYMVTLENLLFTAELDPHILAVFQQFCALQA

[2] = target: T1, endogenous CBP80 of mouse C2C12 myoblasts (mouse); assay: co-immunoprecipitation from C2C12 myoblast lysates, with or without formaldehyde crosslinking and RNase I
CBP80/CBP20 complex = target: T2, CBP80/CBP20 complex (human, UniProt Q09161 20-790; P52298 1-156, limits assumed); assay: X-ray crystal structure of the PGC1β-CBP80-CBP20-cap complex
T2 construct: Used in the fluorescence polarization assays; In the crystal it also carried the cap analogue (m7GpppG / m7GpppA); also called CBC complex; CBC
T2 sequence (looked up) 1: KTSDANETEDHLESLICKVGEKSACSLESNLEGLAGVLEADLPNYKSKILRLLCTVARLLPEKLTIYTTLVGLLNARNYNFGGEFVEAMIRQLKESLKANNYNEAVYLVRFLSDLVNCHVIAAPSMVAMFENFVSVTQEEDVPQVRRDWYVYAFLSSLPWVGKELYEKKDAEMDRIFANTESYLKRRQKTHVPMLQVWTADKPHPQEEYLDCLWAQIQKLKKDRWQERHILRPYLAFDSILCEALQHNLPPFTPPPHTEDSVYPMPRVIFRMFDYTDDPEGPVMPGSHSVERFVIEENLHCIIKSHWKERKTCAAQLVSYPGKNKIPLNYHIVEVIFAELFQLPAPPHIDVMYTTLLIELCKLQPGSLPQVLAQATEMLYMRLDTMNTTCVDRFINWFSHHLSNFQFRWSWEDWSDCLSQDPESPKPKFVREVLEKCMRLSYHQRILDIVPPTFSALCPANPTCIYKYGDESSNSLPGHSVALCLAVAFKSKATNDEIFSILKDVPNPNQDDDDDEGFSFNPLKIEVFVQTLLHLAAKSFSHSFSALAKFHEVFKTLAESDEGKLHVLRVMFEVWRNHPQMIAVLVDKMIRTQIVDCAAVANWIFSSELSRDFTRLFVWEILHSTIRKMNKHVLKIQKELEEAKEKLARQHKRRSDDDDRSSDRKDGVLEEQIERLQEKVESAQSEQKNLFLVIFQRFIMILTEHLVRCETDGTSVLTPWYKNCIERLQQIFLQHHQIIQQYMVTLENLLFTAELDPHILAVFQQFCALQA
T2 sequence (looked up) 2: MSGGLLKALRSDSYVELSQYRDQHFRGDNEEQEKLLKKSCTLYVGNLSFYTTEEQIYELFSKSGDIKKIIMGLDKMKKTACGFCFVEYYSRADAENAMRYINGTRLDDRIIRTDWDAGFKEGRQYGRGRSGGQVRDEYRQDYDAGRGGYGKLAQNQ

B1: endogenous PGC1α of mouse C2C12 myoblasts (protein, UniProt O70343 1-797, looked up)
chain: MAWDMCSQDSVWSDIECAALVGEDQPLCPDLPELDLSELDVNDLDTDSFLGGLKWCSDQSEIISNQYNNEPANIFEKIDEENEANLLAVLTETLDSLPVDEDGLPSFDALTDGAVTTDNEASPSSMPDGTPPPQEAEEPSLLKKLLLAPANTQLSYNECSGLSTQNHAANHTHRIRTNPAIVKTENSWSNKAKSICQQQKPQRRPCSELLKYLTTNDDPPHTKPTENRNSSRDKCASKKKSHTQPQSQHAQAKPTTLSLPLTPESPNDPKGSPFENKTIERTLSVELSGTAGLTPPTTPPHKANQDNPFKASPKLKPSCKTVVPPPTKRARYSECSGTQGSHSTKKGPEQSELYAQLSKSSGLSRGHEERKTKRPSLRLFGDHDYCQSLNSKTDILINISQELQDSRQLDFKDASCDWQGHICSSTDSGQCYLRETLEASKQVSPCSTRKQLQDQEIRAELNKHFGHPCQAVFDDKSDKTSELRDGDFSNEQFSKLPVFINSGLAMDGLFDDSEDESDKLSYPWDGTQPYSLFDVSPSCSSFNSPCRDSVSPPKSLFSQRPQRMRSRSRSFSRHRSCSRSPYSRSRSRSPGSRSSSRSCYYYESSHYRHRTHRNSPLYVRSRSRSPYSRRPRYDSYEAYEHERLKRDEYRKEHEKRESERAKQRERQKQKAIEERRVIYVGKIRPDTTRTELRDRFEVFGEIEECTVNLRDDGDSYGFITYRYTCDAFAALENGYTLRRSNETDFELYFCGRKQFFKSNYADLDTNSDDFDPASTKSKYDSLDFDSLLKEAQRSLRR
In the case of B1, the binding [1] is reported as “binds” and the binding [2] is reported as “binds”.

With MDFDSLLKEAQQSLH (peptide, UniProt Q86YN6 1009-1023, looked up) [PGC1β (synthetic peptide) residues 1009-1023] the binding (CBP80/CBP20 complex) was “binds”.
